PubChem BioAssay AID624297 (National Center for Advancing Translational Sciences (NCATS), 2012)
Screen size: about 340,000 compounds; about 6,200 (1.8%) were called active. The shares of active, inactive and inconclusive entries below differ from those in the screen. Calls follow the shape of the dose curve; as a rule, active = well fitted activation curve with a large enough effect; inconclusive = small, poorly fitted or top-dose-only effect; inactive = no such curve, though single readings can be large or run the other way. Where the call is inconclusive, the potency comes from a doubtful curve fit.

Test: A quantitative high throughput screen for small molecules that induce DNA re-replication in SW480 colon adenocarcinoma cells. Also: nearly all actives have a fitted effect of over 55% in size. As to re-replication activation: % of control where 0% means no effect.
Settings: Hoechst DNA content imaging, 48 h; re-replication activation: at 46.1 µM (top of the series) unless noted
Method in brief: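 DNA re-replication was detected as more nuclei of elevated Hoechst intensity after 48 hr exposure to compound (23 nL pinned per well of 250 cells).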
Potency is read from the fitted curve at half-maximal effect.

Compound | Potency | re-replication activation
COc1ccc(-c2csc3nc(C)nc(N4CCCCC4)c23)cc1OC | inconclusive: 23.1 µM [activator, single point] | 
CCn1c2ccccc2c2cc(NS(=O)(=O)c3ccc(C)cc3)ccc21 | inconclusive: 18.4 µM [activator, single point] | 
O=C(CCN1CCCCC1)c1ccccc1 | inconclusive: 29.1 µM [activator, single point] | 
CCN1C(=O)CC(Sc2ccccc2C(=O)O)C1=O (centres undefined) | inconclusive: 25.9 µM [activator, single point] | 
Cc1cccc(/C(N)=N/OC(=O)COc2ccc(Cl)c(C)c2)c1 |  | inconclusive: 240% [activator]
O=C(C1CC(c2ccccc2O)=NO1)N1CCCCC1 (centres undefined) | inconclusive: 0.103 µM [activator, full curve, poor fit] | 
CSc1oc(-c2ccccc2)nc1S(=O)(=O)c1ccc(F)cc1 | inactive | 
CCS(=O)(=O)Nc1ccc(C(=O)c2ccccc2)cc1 | inactive | 
c1coc(-c2nc3nc4ccccc4nc3n2-c2ccc3c(c2)OCCO3)c1 | inactive | 
CC1CN(S(=O)(=O)c2cccc(C(=O)NNC(=O)C(C)Oc3ccccc3F)c2)CC(C)O1 (centres undefined) | inconclusive: 5.8 µM [activator, partial curve, poor fit] | 
COc1cc(NCCCCCCCN)c2ncccc2c1 | inconclusive: 29.1 µM [activator, single point] | 
CCCCc1cc(=O)oc2cc(OCc3cc(OC)c(OC)c(OC)c3)c(Cl)cc12 | inactive | 
COc1ccc(-n2nc([N+](=O)[O-])c(=NCc3ccc4c(c3)OCO4)n2O)cc1 | inactive | 
NC(=O)c1oc2ccccc2c1NC(=O)c1ccc([N+](=O)[O-])o1 | inconclusive: 2.59 µM [activator, full curve] | 
CCOc1ccc(C(=O)Cc2cc(OC)c(OC)cc2[N+](=O)[O-])cc1 | active: 5.8 µM | 
CCOC(=O)c1nc(SC)n(C)c1C(=O)OCC | inactive | 
Cc1ccc(-n2ncc3c(=O)[nH]c(SCC(=O)N4CCC(C)CC4)nc32)cc1C | inactive | 
Cn1c(N/N=C/c2cc3ccccc3nc2Cl)nc2ccccc21 | inconclusive: 1.84 µM [activator, partial curve, poor fit] | 
COc1ccccc1CNC(=S)Nc1ccc2nc(N3CCN(C)CC3)cc(C)c2c1 | inconclusive: 25.9 µM [activator, single point] | 
C[C@@H]1CC=C[C@@H]2[C@H]1C(=O)N(Cc1ccccc1)[C@H]2c1cccc(C#Cc2ccccc2)c1 | inconclusive: 0.58 µM [activator, partial curve, poor fit] | 
CCCOC(=O)/C(=C\c1ccc([N+](=O)[O-])o1)NC(=O)c1ccccc1 | inconclusive: 29.1 µM [activator, single point] | 
CCOc1ccc(NC(=O)CSc2ncc(-c3ccc(F)cc3)n2Cc2ccco2)cc1 | inconclusive: 18.4 µM [activator, single point] | 
O=C(NCC1CCCO1)c1ccc(-c2cccc(C(F)(F)F)c2)o1 (centres undefined) | inconclusive: 29.1 µM [activator, single point] | 

Compound | Potency | re-replication activation
O=C(CN1CCN(CC(=O)Nc2ccc3c(c2)OC2(CCCCC2)O3)CC1)Nc1cccc(F)c1 | inactive | 
COc1ccc(/C=N/NC(=S)Nc2c(C)n(C)n(-c3ccccc3)c2=O)cc1OC | inconclusive: 9.2 µM [activator, partial curve, poor fit] | 
CCOc1ccc(/C=C2\SC(=S)N(CCC(=O)N(CCO)c3ccccc3)C2=O)cc1 | inconclusive: 29.1 µM [activator, single point] | 
CN(C)C1=NC[C@H](Cc2ccccc2)N1CC1CCCCC1 | inconclusive: 0.731 µM [activator, single point] | 
COc1cc(/C=C/c2ccc(O)cc2)cc(OC)c1 | inconclusive: 0.116 µM [activator, full curve, poor fit] | 
CCc1ccc(CN(C)C(=O)c2cc(COc3cccc(C(F)(F)F)c3)on2)nc1 | inactive | 
Clc1ccc(-c2csc3ncnc(NCCN4CCOCC4)c23)cc1 |  | inactive: -3.58% [at 9.22 µM]
O=C(Nc1ccccc1Oc1ccccc1)c1cc([N+](=O)[O-])ccc1Cl | inconclusive: 29.1 µM [activator, single point] | 
NCCCNc1nc(N)c([N+](=O)[O-])c(NC2CCCCC2)n1 | inconclusive: 8.2 µM [activator, partial curve, poor fit] | 
O=C(NCc1ccc(F)cc1)C1CCCN(c2nc3ccsc3c(=O)s2)C1 (centres undefined) | inconclusive: 1.16 µM [activator, partial curve, poor fit] | 
O=C(CN(Cc1ccccc1)S(=O)(=O)c1ccccc1)N/N=C/c1ccc([N+](=O)[O-])cc1 | inconclusive: 29.1 µM [activator, single point] | 
CCCc1cc(=O)oc2c(CN(CC)CC)c(O)c(Cl)cc12 | inconclusive: 2.06 µM [activator, full curve] | 
O=C(CSc1nc2nn(-c3ccccc3)c(=O)c-2c2n1CCCCC2)c1ccc(O)c(O)c1 | inconclusive: 29.1 µM [activator, single point] | 
Cc1ccccc1NC(=O)C(Cl)=C(Cl)Cl | inconclusive: 18.4 µM [activator, single point] | 
Cc1ccnc(NC(=O)/C=C/c2cccs2)c1 | inconclusive: 20.6 µM [activator, single point] | 
CCOc1nc(-c2ccc(OC)cc2)ccc1-c1noc(C)n1 | inconclusive: 18.4 µM [activator, single point] | 
FC(F)(F)c1nc2ccccc2n2c(-c3ccc(Cl)cc3Cl)nnc12 | inconclusive: 23.1 µM [activator, partial curve, poor fit] | 
CC(=O)n1c2ccccc2c2c1c1ccccc1n2C | inactive | 
CCN(CCn1cccn1)C(=O)C1CCC(=O)N(CCN2CCOCC2)C1 (centres undefined) | inactive | 
N#CC1(NC(=O)CSc2nc3ccccc3o2)CCCCC1 | inconclusive: 32.6 µM [activator, partial curve, poor fit] | 
Cc1cc(OCC(=O)Nc2cnn(CCCC(=O)O)c2)ccc1[N+](=O)[O-] | inconclusive: 29.1 µM [activator, single point] | 
C#CCOC(=O)Nc1cccn(Cc2c(Cl)cccc2Cl)c1=O | inconclusive: 23.1 µM [activator, single point] | 
O=C(N/N=C/c1ccc(Br)s1)c1cccc([N+](=O)[O-])c1 | inactive | 

Compound | Potency | re-replication activation
CCSc1ccc(-c2nn(-c3ccccc3)cc2/C=C(/C#N)C(=O)NC)cc1 | inconclusive: 8.2 µM [activator, partial curve] | 
CCCCn1c(N)c(N(CC)C(=O)c2cccs2)c(=O)[nH]c1=O | inactive | 
Cc1cccc(NC(=O)NC2CCCCCCC2)c1 | inconclusive: 20.6 µM [activator, single point] | 
N=c1oc2ccccc2cc1-c1nc(-c2ccccc2)cs1 | active: 13 µM | 
O=C(NCC(c1cccs1)N1CCOCC1)c1cn(-c2ccccc2)nc1-c1ccc(F)cc1 (centres undefined) | inconclusive: 6.51 µM [activator, partial curve, poor fit] | 
O=C(CNC(=O)c1cccs1)N/N=C/c1c[nH]c2ccccc12 | inconclusive: 29.1 µM [activator, single point] | 
COc1cc(/C=N\Nc2nncn2N)ccc1OC(C)=O | inconclusive: 25.9 µM [activator, single point] | 
O=C1CCCC2=C1CC(C(=O)OCc1ccccc1)C(=O)N2Cc1ccccc1 (centres undefined) | inconclusive: 0.0517 µM [activator, full curve, poor fit] | 
COC(=O)c1ccc2c(=O)n(-c3ccccc3)c(=S)[nH]c2c1 | inconclusive: 18.4 µM [activator, single point] | 
O=C(Cn1c(=S)[nH]c2ccccc2c1=O)N1CCc2ccccc2C1 | inactive | 
CCn1c(=O)c(C(=O)CN2CC(C)OC(C)C2)c(N)n(Cc2ccccc2)c1=O (centres undefined) | inactive | 
COc1ccc(Nc2nc(N3CCOCC3)nc(N3CCOCC3)n2)cc1 | inactive | 
CN(Cc1cc(Cl)cc(Cl)c1O)Cc1c(O)ccc2ccccc12 | inconclusive: 29.1 µM [activator, single point] | 
O=C(NCCCN1CCN(CCCNC(=O)c2ccccc2F)CC1)c1ccccc1F | active: 7.31 µM | 
CC(NC(=O)/C(C#N)=C/c1ccc(N2CCOCC2)cc1)c1ccccc1 (centres undefined) | inconclusive: 29.1 µM [activator, single point] | 
O=c1[nH]c(SCc2ccccc2Cl)nc2c1CCC2 | inactive | 
O=C(Nc1cccc(C(F)(F)F)c1)Oc1ccc(Cl)c2cccnc12 | inconclusive: 6.51 µM [activator, single point] | 
Cc1cc(Cl)ccc1OCC(=O)Nc1ccccc1C(=O)N1CCOCC1 | inactive | 
Cc1ccc(C(C(=O)NC(C)(C)C)N(CC2CCCO2)C(=O)Cn2nnc(-c3ccc(C)o3)n2)cc1 (centres undefined) | inconclusive: 35.5 µM [activator, partial curve, poor fit] | 
CCC1CN(C(=O)N2CCC(C(=O)NCc3ccc(C)o3)CC2)c2cc(C)ccc2O1 (centres undefined) | inactive | 
COc1cccc(/C=N\NC(=O)Cn2nnc3ccccc32)c1O | inconclusive: 25.9 µM [activator, single point] | 
Cc1cc(C)n(Cc2cccc(C(=O)N/N=C/c3cccnc3)c2)n1 | inconclusive: 6.51 µM [activator, single point] | 
Cc1ccc(N(C)S(=O)(=O)c2cccc(C(=O)OCC(=O)c3c(N)n(C)c(=O)n(C)c3=O)c2)cc1 | inconclusive: 0.651 µM [activator, partial curve, poor fit] | 

Three compounds out of the list, arranged by formula weight, falling:
Compound | Potency | re-replication activation
O=C(CN1CCN(CC(=O)Nc2ccc3c(c2)OC2(CCCCC2)O3)CC1)Nc1cccc(F)c1 | inactive | 
CCN(CCn1cccn1)C(=O)C1CCC(=O)N(CCN2CCOCC2)C1 (centres undefined) | inactive | 
Cn1c(N/N=C/c2cc3ccccc3nc2Cl)nc2ccccc21 | inconclusive: 1.84 µM [activator, partial curve, poor fit] | 
